Measured values as given in PMC5245786.
These are yes or no findings as the source states them, for the method shown. A result given as binding can be weak or reduced; the word gives no strength.

Target: T1, SodA (S. aureus (endogenous in strain Newman)) (UniProt P0A0J3)
T1 sequence: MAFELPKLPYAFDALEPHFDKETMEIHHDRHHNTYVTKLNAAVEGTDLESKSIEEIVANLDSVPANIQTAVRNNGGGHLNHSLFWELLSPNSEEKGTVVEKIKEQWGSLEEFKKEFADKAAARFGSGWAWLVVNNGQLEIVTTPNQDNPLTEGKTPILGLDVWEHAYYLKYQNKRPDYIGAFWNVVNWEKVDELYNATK
Test: native gel or EMSA; cell lysates of wild type S. aureus (grown with or without CP and 0.1 mM PQ), normalised to total protein, resolved on 10% native polyacrylamide gel; bands seen by in-gel nitro blue tetrazolium SOD activity stain

For “SodM (S. aureus (endogenous in strain Newman)) (enzyme)”, the binding was “binds”.
